PubChem BioAssay AID1224828 – NIAID, 2016
Assay: 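Find genes required for NF-kappaB p65 moving into the nucleus after LPS in mouse macrophages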 (primary screen). Cells: mouse RAW264.7 G9 macrophage reporter cells (GFP-p65, Tnf promoter-mCherry). Reagent: siRNA pool against mouse genes, 100 nM. Timing: 2 days siRNA transfection, then 40 min LPS before fixation. Challenge: LPS (Salmonella minnesota R595) at 10 ng/ml. Detection: 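Microscopy ratio of nuclear to perinuclear-ring GFP-p65 signal, scaled to the plate median; gene score is the average of two replicate robust z-scores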. Scale: p65 translocation robust z-score: higher = more nuclear NF-kappaB p65 after LPS than the plate median; nuclear/cytoplasmic p65 ratio: higher = more nuclear NF-kappaB p65. Call rule: 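Called active when z exceeds 3.3 or falls under -1.56 (median of Tlr4 controls), giving activity score of at least 50; no calls for control wells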. Meaning of the calls: active = hit (p65 shift raised or lowered); inactive = no clear change.
The whole screen tested about 17,000 reagents; below is a random part of them. Over the whole deposit, 762 (4.5%) were called active. 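Active calls include both raised and lowered p65 entry, mostly lowered; wells with fewer than 50 cells lack a z-score.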 The raw values are shown without normalisation. The numbers tell different reagents against one gene apart. A reagent listed more than once was tested more than once; the source does not tell the runs apart. No sequences are given here.

gene symbol	reagent	p65 translocation robust z-score	nuclear/cytoplasmic p65 ratio, rep 1	nuclear/cytoplasmic p65 ratio, rep 2	low cell count flag	outcome
Agtpbp1	1	-0.44	1.5	1.66	enough cells to score	inactive
Shbg	1	0.51	1.58	1.67	enough cells to score	inactive
Pi4kb	1		1.48	1.29	fewer than 50 cells per well; well left out of scoring	inactive
Prickle3	1	-2.28	1.35	1.22	enough cells to score	active
Art4	1	0.43	1.65	1.72	enough cells to score	inactive
Stk35	1	0.82	1.78	1.52	enough cells to score	inactive
Stk35	1		1.57	1.24	fewer than 50 cells per well; well left out of scoring	inactive
Bmp7	1	0.22	1.66	1.63	enough cells to score	inactive
Or13a28	1	1.01	1.52	1.44	enough cells to score	inactive
Gpr171	1	0.71	1.62	1.67	enough cells to score	inactive
Robo2	1	-0.67	1.33	1.12	enough cells to score	inactive
Ank2	1	0.8	1.75	1.78	enough cells to score	inactive
Spef2	1		1.31	1.17	fewer than 50 cells per well; well left out of scoring	inactive

A portion taken from the entries so far:
gene symbol	reagent	p65 translocation robust z-score	nuclear/cytoplasmic p65 ratio, rep 1	nuclear/cytoplasmic p65 ratio, rep 2	low cell count flag	outcome
Stk35	1	0.82	1.78	1.52	enough cells to score	inactive
Stk35	1		1.57	1.24	fewer than 50 cells per well; well left out of scoring	inactive
Bmp7	1	0.22	1.66	1.63	enough cells to score	inactive

The listing continues:
gene symbol	reagent	p65 translocation robust z-score	nuclear/cytoplasmic p65 ratio, rep 1	nuclear/cytoplasmic p65 ratio, rep 2	low cell count flag	outcome
Zfp763	1	0.52	1.66	1.72	enough cells to score	inactive
Mtch1	1	0.48	1.49	1.41	enough cells to score	inactive
Urod	1	-0.38	1.5	1.41	enough cells to score	inactive
C230066G23Rik	1		1.33	1.35	fewer than 50 cells per well; well left out of scoring	inactive
Cdk5r2	1	-1.69	1.43	1.17	enough cells to score	active
Mdm4	1	-0.52	1.29	1.36	enough cells to score	inactive
Ndp	1	0.1	1.51	1.31	enough cells to score	inactive
Actl6b	1	0.59	1.82	1.6	enough cells to score	inactive
Sec22b	1	-0.75	1.48	1.41	enough cells to score	inactive
Fgfr1	1		1.56	1.24	fewer than 50 cells per well; well left out of scoring	inactive
Cdc42bpg	1		1.55	1.4	fewer than 50 cells per well; well left out of scoring	inactive
Mzf1	1	0.74	1.68	1.55	enough cells to score	inactive
Bacc1	1	1.26	1.64	1.7	enough cells to score	inactive
Klra1	1	-0.14	1.42	1.4	enough cells to score	inactive
Zfp758	1	0.53	1.8	1.62	enough cells to score	inactive
Cct6a	1	-0.54	1.42	1.28	enough cells to score	inactive
Dll1	1	-0.61	1.5	1.2	enough cells to score	inactive
Ndrg3	1	-0.48	1.76	1.47	enough cells to score	inactive
Lrrd1	1		1.18	1.37	fewer than 50 cells per well; well left out of scoring	inactive
Ripk2	1	-2.19	1.25	1.17	enough cells to score	active
Stfa2l1	1	0.15	1.75	1.42	enough cells to score	inactive
Cldn4	1	0.11	1.52	1.36	enough cells to score	inactive
Vmn1r62	1	-0.11	1.38	1.1	enough cells to score	inactive
Vmn1r62	2	-0.41	1.34	1.18	enough cells to score	inactive
Kcnd2	1	0.07	1.51	1.37	enough cells to score	inactive
Sycp2	1		1.32	1.1	fewer than 50 cells per well; well left out of scoring	inactive
Ap3s2	1	0.14	1.63	1.52	enough cells to score	inactive
